Source: patent US8206898B2, “RNA exit channel: target and method for inhibition of bacterial RNA polymerase” (priority 2003, dated 2012)

Tested on: RNAP holoenzyme (β′/β/α^I/α^II/ω/σ^70)
Test: FRET probe-probe distances in RNAP holoenzyme with and without Lpm
Set-up: species or system Escherichia coli
Details: between α^II residue 235 and σ residues 527 and 537

lipiarmycin [Lpm]
decrease in distance on binding of Lpm: > 10 Å
